The source of these data is the supplement of paper PMC8256030.

For this assay, the system named is HEK293T. Put plainly: percent viability (nuclei count) relative to control; higher = more viable cells. Conditions: 10 µM; 24 h.

“And” between values parts separate entries of the source, which are not always exact repeats. Identical values can stand only once. Counter-ions that a name gives are not always drawn. The list shows a part of the results. Single values are uncertain here, since repeats match poorly.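 HEK293T cells were given each compound shortly before transfection with a reporter in which red mCherry is followed by the SARS-CoV-2 frameshift element and then GFP in the −1 frame, so GFP appears only after frameshifting.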

For `CCCc1nc(C(C)(C)O)c(C(=O)OCc2oc(=O)oc2C)n1Cc1ccc(-c2ccccc2-c2nnn[nH]2)cc1` [olmesartan medoxomil], the percent viability is 252% and 290% and 280%. For `CC1CNc2c(cccc2S(=O)(=O)N[C@@H](CCCNC(=N)N)C(=O)N2CC[C@@H](C)C[C@@H]2C(=O)O)C1` (some centres not stated) [Argatroban], the percent viability is 126% and 290%. In the case of `CN/C(=N\c1ccc(C2=NNC(=O)CC2C)cc1)NC#N` (configuration not stated) [siguazodan], the percent viability came to 105%. The result for `N=c1nc(N2CCCCC2)cc(N)n1O` [minoxidil] reads 308% and 247%; that for `CCCCCCCCCCCCCCCC(=O)OC/C=C(C)/C=C/C=C(C)/C=C/C1=C(C)CCCC1(C)C`, 265%; that for `N[C@@H](Cc1c[nH]cn1)C(=O)O` [L-Histidine], 284%. Consider `CC(=O)Nc1c(I)cc(I)c(C(=O)O)c1I`, for which the percent viability is 233%. As for `O=C1CC2(CCCC2)CC(=O)N1CCCCN1CCN(c2ncccn2)CC1` [buspirone], the percent viability was 210% and 111%. `C=C1c2c(Cl)ccc(O)c2C(O)=C2C(=O)[C@]3(O)C(O)=C(C(N)=O)C(=O)[C@@H](N(C)C)[C@@H]3[C@@H](O)[C@H]12.O=C(O)c1cc(S(=O)(=O)O)ccc1O`: the percent viability was 140%.

For `COc1ccc(C2C(=O)c3ccccc3C2=O)cc1` [anisindione], the percent viability worked out at 200%. The result for `O=C(O)Cc1cc(I)c(Oc2ccc(O)c(I)c2)c(I)c1` [tiratricol] reads 385%. As to `COc1ccc(C(=O)Nc2c(Cl)cncc2Cl)cc1OC1CCCC1` [piclamilast], the percent viability was found to be 92.7%. The same measure for `CCCCN1CCCC1C(=O)Nc1c(C)cc(C)cc1C` (configuration not stated) [bumecaine]: 202%; for `CN(C)CCOC(C)(c1ccccc1)c1ccccn1` (configuration not stated): 180%.

For the molecule `Clc1ccc(C(Cn2ccnc2)OCc2c(Cl)cccc2Cl)c(Cl)c1` (configuration not stated) [isoconazole], the percent viability is 207%.

Turning to `Nc1ncnc2c1ncn2[C@@H]1O[C@H](COP(=O)(O)OP(=O)(O)OP(=O)(O)O)[C@@H](O)[C@H]1O` [Adephos], the percent viability turned out to be 264%. For the molecule `N[C@H]1CONC1=O` [levcycloserine], the percent viability worked out at 137%. As to `O=[N+]([O-])c1ccc(S(=O)(=O)Nc2nccs2)cc1` [nitrosulfathiazole], the percent viability was 229%.

Take `C[N+](C)(C)CCO.[Cl-]` [choline chloride]: the percent viability turned out to be 328%. Regarding `C/C=C/C(=O)N(CC)C(CC)C(=O)N(C)C` (configuration not stated) [crotetamide], the percent viability turned out to be 122%. As to `CN(C)CCCN1c2ccccc2Sc2ccccc21` [promazine], the percent viability amounted to 146%. Regarding `NC(N)=NCCCC(N)C(=O)O` (configuration not stated), the percent viability came to 181%.

With `COc1ccc(C(=O)c2ccccc2)c(O)c1` [oxybenzone], the percent viability worked out at 339%.

For the molecule `CC(=O)N(CC(O)CO)c1c(I)c(C(=O)NCC(O)CO)c(I)c(C(=O)NCC(O)CO)c1I` (configuration not stated), the percent viability was 180%.

In the case of `N=C(N)NCCN1CCCCCCC1` [guanethidine], the percent viability was found to be 255%. Turning to `CCN(CC)Cc1cc(Nc2ccnc3cc(Cl)ccc23)ccc1O`, the percent viability was found to be 409%. On to `CCCOc1ccc(S(=O)(=O)NCCC2CCCN2C)cc1-c1nc2c(CCC)nn(C)c2c(=O)[nH]1` (configuration not stated) [udenafil], for which the percent viability turned out to be 334%. In the case of `Cc1c(N(C)CS(=O)(=O)O)c(=O)n(-c2ccccc2)n1C` [metamizole sodium], the percent viability amounted to 358%. The same measure for `OC(CN1CCC(Cc2ccc(F)cc2)CC1)c1ccc(Cl)cc1` (configuration not stated) [eliprodil]: 94.5%. Turning to `COc1ccc(CN(CCN(C)C)c2ccccn2)cc1` [mepyramine], the percent viability is 102% and 285%. Turning to `CC(C)(C)NC(=O)[C@@H]1CN(Cc2cccnc2)CCN1C[C@@H](O)C[C@@H](Cc1ccccc1)C(=O)N[C@H]1c2ccccc2C[C@H]1O` [indinavir], the percent viability turned out to be 235%. As for `COc1c(C)c2c(c(O)c1C/C=C(\C)CCC(=O)O)C(=O)OC2` [mycophenolic acid], the percent viability was 245% and 109%. For `Oc1c(I)cc(I)c2cccnc12` [5,7-Diiodo-8-hydroxyquinoline], the percent viability amounted to 13.5%. The result for `NCCS` reads 226%. On to `CC(C)OC(=O)c1cc2c(OCC(O)CNC(C)(C)C)cccc2[nH]1` (configuration not stated) [carpindolol], for which the percent viability was determined as 183%. As for `Cc1cccc(C)c1NC(=O)C1CCCCN1C` (configuration not stated), the percent viability was 343%. As to `C[C@]12CC[C@@H]3c4ccc(O)cc4CC[C@H]3[C@@H]1C[C@@H](O)[C@@H]2O` [Estriol], the percent viability was 272%.

`CC(=O)OCC(=O)NCCCOc1cccc(CN2CCCCC2)c1` [Roxatidine acetate·HCl]: the percent viability worked out at 143%. Consider `CC#CCC(C)[C@H](O)/C=C/[C@@H]1[C@H]2C/C(=C/CCCC(=O)O)C[C@H]2C[C@H]1O` (some centres not stated) [iloprost], for which the percent viability is 195%.

Take `CN1CCC(=C2c3ccccc3CCn3c(C=O)cnc32)CC1` [alcaftadine]: the percent viability turned out to be 291%.

On to `O=C1c2c(O)cccc2C(C2OC(CO)C(O)C(O)C2O)c2cc(CO)cc(O)c21` (configuration not stated), for which the percent viability stood at 317%. Turning to `Nc1nc(F)nc2c1ncn2[C@@H]1O[C@H](CO)[C@@H](O)[C@@H]1O` [fludarabine], the percent viability came out at 63%. Consider `O=C(O)Cc1ccc(-c2ccccc2)cc1` [felbinac], for which the percent viability stood at 166%. Regarding `O=C(O)Cc1ccc2c(c1)C(=O)c1ccccc1CO2` [isoxepac], the percent viability was determined as 191%. The same measure for `Nc1nc2c(c(=O)[nH]1)C[C@@H](CCc1ccc(C(=O)N[C@@H](CCC(=O)O)C(=O)O)cc1)CN2` [lometrexol]: 133%. `OC[C@H]1O[C@@H](n2cnc3c2N=CNC[C@H]3O)C[C@@H]1O` [Pentostatin]: the percent viability amounted to 16.6%. For the molecule `CN(C)CC/C=C1/c2ccccc2COc2ccc(CC(=O)O)cc21` [olopatadine], the percent viability came out at 187%. In the case of `C#CCN[C@@H]1CCc2ccccc21` [rasagiline], the percent viability is 133%. As for `CO/N=C(\C(=O)N[C@@H]1C(=O)N2C(C(=O)O)=C(COC(C)=O)CS[C@H]12)c1csc(N)n1`, the percent viability worked out at 288%.

As for `CC(=O)[C@@]1(O)CC[C@H]2[C@@H]3C=C(Cl)C4=CC(=O)[C@@H]5C[C@@H]5[C@]4(C)[C@H]3CC[C@@]21C`, the percent viability is 238%. The same measure for `C#C[C@]1(O)CC[C@H]2[C@@H]3CCC4=CCCC[C@@H]4[C@H]3C(=C)C[C@@]21CC` [desogestrel]: 238%; for `CN1CCC(=C2c3ccccc3CCc3cccnc32)CC1` [azatadine]: 263%; for `CO[C@H]1C[C@H](O[C@H]2[C@H](C)O[C@@H](O[C@@H]3/C(C)=C/C[C@@H]4C[C@@H](C[C@]5(C=C[C@H](C)[C@@H](C6CCCCC6)O5)O4)OC(=O)[C@@H]4C=C(C)[C@@H](O)[C@H]5OC/C(=C\C=C\[C@@H]3C)[C@]54O)C[C@@H]2OC)O[C@@H](C)[C@@H]1O`: 132%. Take `CN(C)c1cc(NC(=O)CNC(C)(C)C)c(O)c2c1C[C@H]1C[C@H]3[C@H](N(C)C)C(=O)C(C(N)=O)=C(O)[C@@]3(O)C(=O)C1=C2O` [Tigecycline]: the percent viability stood at 284%. The result for `NC(=O)N=Nc1ccc2ccccc2c1O` [naftazone] reads 317%.

As to `CC(NN)c1ccccc1` (configuration not stated) [mebanazine], the percent viability stood at 125%. As for `C=C1CCN([C@H](C)[C@](O)(Cn2cncn2)c2ccc(F)cc2F)CC1` [Efinaconazole], the percent viability came to 233%. Turning to `Oc1ccc2c(c1)CC[C@H](c1ccccc1)[C@@H]2c1ccc(OCCN2CCCC2)cc1` [lasofoxifene], the percent viability stood at 317%.

With `CCOC(=O)c1nc(=O)c2cc3cc(OC)c(OC)cc3nc2[nH]1` [pirolate], the percent viability was 136%.

For the molecule `CN(C)[C@@H]1C(=O)C(C(N)=O)=C(O)[C@@]2(O)C(=O)C3=C(O)c4c(O)ccc(Cl)c4[C@@H](O)[C@H]3C[C@@H]12` [Demeclocycline], the percent viability was determined as 66.3%. As to `O=c1[nH]c2cc(C(F)(F)F)c(N3CCOCC3)cc2n(CP(=O)(O)O)c1=O` [fanapanel], the percent viability was determined as 193%. The result for `Cc1nnc(C(=O)NC(C)(C)c2nc(C(=O)NCc3ccc(F)cc3)c(O)c(=O)n2C)o1` [Raltegravir] reads 270%; that for `Cn1cnc([N+](=O)[O-])c1Sc1ncnc2[nH]cnc12` [azathioprine], 124%; that for `CN1CC(=O)N2[C@H](c3ccc4c(c3)OCO4)c3[nH]c4ccccc4c3C[C@@H]2C1=O` [tadalafil], 60.2%.

Consider `C=C1/C(=C\C=C2/CCC[C@]3(C)[C@@H]([C@H](C)CC[C@@H](O)C(C)C)CC[C@@H]23)C[C@@H](O)C[C@@H]1O` [tacalcitol], for which the percent viability came out at 71.8%.

Regarding `NCCc1cc[nH]n1` [betazole], the percent viability worked out at 232%. As to `C[C@H]1[C@H](OC(=O)CCC(=O)O)O[C@@H]2O[C@@]3(C)CC[C@H]4[C@H](C)CC[C@@H]1[C@@]24OO3` [artesunate], the percent viability stood at 108%. `O=C(O)COc1nn(Cc2ccccc2)c2ccccc12` [bendazac]: the percent viability turned out to be 197%. For `O=C(O)c1cccnc1Nc1cccc(C(F)(F)F)c1` [niflumic acid], the percent viability was 354% and 247%.

For the molecule `CCOC(=O)OC(C)OC(=O)[C@@H]1N2C(=O)[C@@H](NC(=O)[C@H](N)c3ccccc3)[C@H]2SC1(C)C` (some centres not stated) [bacampicillin], the percent viability was 41.2%. Turning to `CC(=O)N[C@@H](CSC(C)=O)C(=O)O` [dacisteine], the percent viability amounted to 57.9%.

Consider `NNC(=O)c1ccncc1` [isoniazid], for which the percent viability is 261% and 176%. For the molecule `C[C@H](N)[C@H](O)c1cccc(O)c1`, the percent viability worked out at 250%. For `Clc1ccc(C(Cn2ccnc2)OCc2csc3c(Cl)cccc23)c(Cl)c1` (configuration not stated) [sertaconazole], the percent viability came out at 328%. As to `N=C(N)NC(=O)c1nc(Cl)c(N)nc1N`, the percent viability was found to be 343%. Take `C/C=C/c1ccc(OC)cc1`: the percent viability stood at 249%.

In the case of `COc1nc2ccc(Br)cc2cc1[C@@H](c1ccccc1)[C@@](O)(CCN(C)C)c1cccc2ccccc12` [Bedaquiline], the percent viability turned out to be 203%. Regarding `CN(CCCN1c2ccccc2CCc2ccccc21)CC(=O)c1ccc(Cl)cc1` [lofepramine], the percent viability came to 284%. As to `CCCc1nn(C)c2c(=O)[nH]c(-c3cc(S(=O)(=O)N4CCN(C)CC4)ccc3OCC)nc12` [Sildenafil], the percent viability was found to be 289%. Take `C#CC1(O)CC[C@H]2[C@@H]3CCC4=CC(=O)CC[C@@H]4[C@H]3CC[C@@]21CC` (some centres not stated) [norgestrel]: the percent viability amounted to 152%. As to `C(=N\NC1=NCCN1)/c1c2ccccc2c(/C=N/NC2=NCCN2)c2ccccc12` [bisantrene], the percent viability was found to be 37%. The same measure for `CC1(C)O[C@@H]2[C@@H](CO[C@@]3(COS(N)(=O)=O)OC(C)(C)O[C@@H]23)O1` [topiramate]: 273%.
